PubChem BioAssay AID504804, Drosophila RNAi Screening Center | 2011
The screen tested about 19,000 reagents; shown is a random part of those with a known target gene and a result. In the full data, 47 (0.25%) were called active. 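Signals are raw, not normalised; exact z-scores behind calls not deposited; actives needed confirmation, so some wells reaching 2 SD are inactive.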 Unmarked entries are inactive. Names joined by + are all predicted targets of the reagent.

- Assay: 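dsRNAs that improve Kc cell survival under doxorubicin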 (primary screen)
- Cell system: Drosophila Kc cells
- Knock-down reagent: long dsRNA against Drosophila genes, 0.5 µg dsRNA per well
- Timing: 96 h (48 h knock-down, then 48 h drug)
- Challenge: doxorubicin 5 µg/ml for 48 h, added 48 h after dsRNA
- Read-out: 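Luminescent ATP counts per replicate, not normalised, reflecting viable cells after 48 h dsRNA knock-down followed by 48 h of 5 µg/ml doxorubicin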
- Reading the numbers: raw ATP luminescence: higher = more viable cells, protection from doxorubicin
- Active means: 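z-score of 2 or more over plate mean in both duplicates, retained only when retests and separate dsRNAs confirm the protection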

Target gene	dsRNA	SD above plate mean	raw ATP luminescence, replicate 1	raw ATP luminescence, replicate 2
Pos	DRSC15415		42490	51890
Cpr65Ax2 + Cpr65Ax1	DRSC10341		1.03e5	85193
Cpr65Ax2 + Cpr65Ax1	DRSC10344		90190	95170
lark	DRSC11362		46760	39283
CG1724	DRSC20548		2.50e5	2.36e5
eIF2D	DRSC13916		2.05e5	1.85e5
Tsp26A	DRSC03135		28590	32797
CG40005 (retired record) + cta	DRSC03763		89187	73577
Rif1	DRSC05593		51617	59320
not	DRSC11378		30810	54170
CG33232 (retired record)	DRSC08187		75193	69923
CG3270	DRSC04988		65440	73850
CG1888	DRSC06797		44853	76573
nerfin-2	DRSC14547		61503	45100
Rpt5	DRSC16842		39200	43223
Orp8	DRSC15110		37690	46380
Orp8	DRSC15712		41427	29837
CG3708	DRSC18646		47180	47640
Hel25E	DRSC03342		60713	47737
CG11768	DRSC14377		43023	44493
DnaJ-1	DRSC11145		40007	37923
CG30429	DRSC04040		99473	89393
CG31267	DRSC15748		89720	86190
Sf3b3	DRSC08370		53980	67700
CG14227	DRSC19584		1.68e5	2.23e5
Zn72D	DRSC11318		22007	24967
CG8750	DRSC11037		51977	51313
CARPB	DRSC18438		3.58e5	3.71e5
CG42816 + CG42815	DRSC11230		36053	27700
gammaSnap1	DRSC04686		59140	54870
CG14628	DRSC18626		61970	74250
CG32391	DRSC08865		1.05e5	1.49e5
upd2	DRSC19969		3.63e5	2.82e5
hpRNA:CR32207	DRSC09616		74043	59573
sp3	DRSC16354		51270	53720
hth	DRSC16967		57957	50240
CG12783	DRSC14538		83990	64890
CR31824	DRSC01517		2.26e5	2.05e5
CG12768	DRSC11680		51430	47237
CG9175	DRSC03153		93793	65780
Eip63F-1	DRSC08072		1.89e5	1.44e5
Eip63F-1	DRSC08659	2 to 3 SD above plate mean (active)		
CG42366	DRSC02760		25257	40567
CycT	DRSC11124		37730	42917
elfless	DRSC02451		45320	58997
CG1663	DRSC06613		54487	80517
CG4362	DRSC15567		40000	36260
red	DRSC14477		45930	15760
I-3	DRSC20479		3.07e5	2.71e5
Slc45-1	DRSC10427		56187	63723
sens-2	DRSC02136		37423	35010
sens-2	DRSC02613		27443	31157
CG3955	DRSC06859		44830	68563
tio	DRSC03739		40933	46633
Sse	DRSC09746		42017	41720
CG15649	DRSC04240		61723	58320
epsilonCOP	DRSC02003		1.46e5	1.02e5
ci	DRSC17172		55670	55390
CG10991 (retired record)	DRSC12156		63627	62360
CG15535	DRSC15071		39650	41390
CYLD	DRSC02870		38670	78733
Obp47a	DRSC06255		44567	81800
CG14007	DRSC02339		27017	32240
CG9215	DRSC20171		3.98e5	3.44e5
CG10747	DRSC02104		51763	54647
CG13862	DRSC14712		47890	85140
Arpc2	DRSC02113		92610	83263
MsrA	DRSC11159		62983	51170
CG7739	DRSC10910		70257	79357
RpL12	DRSC04344		20607	28357
CG34427	DRSC09978		76633	83050
Ctu1	DRSC07069		34560	66013
CG31955	DRSC00285		44097	40557
LysD + LysB + LysC (retired record)	DRSC21249		2.64e5	2.98e5
CG18301	DRSC02662		42717	81550
CG14606	DRSC12550		70430	75793
CG7365	DRSC10824		19920	16710
CG42496 + Ppcdc	DRSC03886		69523	65340
CG13833	DRSC14683		57290	65320
CG6424	DRSC05936		57637	59930
Cyp40	DRSC10980		35487	32010
RAF2	DRSC10443		26923	22960
RAF2	DRSC10454		57660	50300
CG2187	DRSC15425		44840	49700

4 entries from above in another layout:
| Target gene | dsRNA | SD above plate mean | raw ATP luminescence, replicate 1 | raw ATP luminescence, replicate 2 |
| --- | --- | --- | --- | --- |
| ci | DRSC17172 | – | 55670 | 55390 |
| CG10991 (retired record) | DRSC12156 | – | 63627 | 62360 |
| CG15535 | DRSC15071 | – | 39650 | 41390 |
| CYLD | DRSC02870 | – | 38670 | 78733 |
